Assay results from patent US11229628B2, “TRPA1 and TRPV4 inhibitors and methods of using the same for organ-specific inflammation and itch” (Duke University, priority 2015, dated 2022).
“Also recorded” adds a separate entry of the source.

Test system: mice
Assay: ET1 footpad injection, von Frey withdrawal thresholds
Format: in vivo, mouse
Conditions: WT and oil-treated iKO (control) mice

In the case of endothelin-1 [ET1], the “mechanical allodynia / von Frey withdrawal thresholds after footpad injection” value is reported as “significantly lowered; also recorded: significant levels of mechanical allodynia”.
